Assay results as given in article PMC3891358.
Results are given in words; binding and its absence hold for the method and conditions named. Binding seen in cells or lysates may run through a third protein. A yes stands for co-enrichment or nearness to the bait. Other partners may have been found. For some assays here: A no says only that the protein was not detected with the bait.

Amino acid sequences for entries named in this document (tags omitted).
UniProt Q63690: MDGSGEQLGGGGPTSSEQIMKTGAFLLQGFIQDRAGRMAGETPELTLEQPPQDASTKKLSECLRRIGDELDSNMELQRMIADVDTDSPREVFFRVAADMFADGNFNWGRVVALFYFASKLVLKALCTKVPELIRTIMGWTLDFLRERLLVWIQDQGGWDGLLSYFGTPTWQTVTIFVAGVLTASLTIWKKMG
UniProt M0RC65: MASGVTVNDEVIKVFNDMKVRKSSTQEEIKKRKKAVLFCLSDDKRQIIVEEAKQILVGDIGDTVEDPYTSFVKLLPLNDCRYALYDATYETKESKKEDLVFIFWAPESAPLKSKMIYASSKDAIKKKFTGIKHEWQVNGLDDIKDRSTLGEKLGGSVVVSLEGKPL

What was measured:
[1] = molecular target: Bax (rat (endogenous in late OPCs of Sprague-Dawley rats and in white matter of Wistar rats)) (UniProt Q63690); test: affinity purification with mass spectrometry; IP of total Bax (N20) from IGF-I-treated late OPCs, 1% CHAPS lysis buffer; SDS/PAGE, ~20 kDa band excised, ESI-LC-MS/MS
[2] = molecular target: Bax (rat (endogenous in late OPCs of Sprague-Dawley rats and in white matter of Wistar rats)) (UniProt Q63690); test: condition: only OPCs treated with glutamate (500 μM); affinity purification with mass spectrometry; as a3, late OPCs treated with glutamate

- binding [1]: binds
- binding [2]: no binding
Substance: cofilin (from UniProt M0RC65 1-166)
